Among the data in article PMC11166643 are binding values, retold here.

By UniProt entry, the sequences of proteins in these tests, tags left out.
UniProt Q16665: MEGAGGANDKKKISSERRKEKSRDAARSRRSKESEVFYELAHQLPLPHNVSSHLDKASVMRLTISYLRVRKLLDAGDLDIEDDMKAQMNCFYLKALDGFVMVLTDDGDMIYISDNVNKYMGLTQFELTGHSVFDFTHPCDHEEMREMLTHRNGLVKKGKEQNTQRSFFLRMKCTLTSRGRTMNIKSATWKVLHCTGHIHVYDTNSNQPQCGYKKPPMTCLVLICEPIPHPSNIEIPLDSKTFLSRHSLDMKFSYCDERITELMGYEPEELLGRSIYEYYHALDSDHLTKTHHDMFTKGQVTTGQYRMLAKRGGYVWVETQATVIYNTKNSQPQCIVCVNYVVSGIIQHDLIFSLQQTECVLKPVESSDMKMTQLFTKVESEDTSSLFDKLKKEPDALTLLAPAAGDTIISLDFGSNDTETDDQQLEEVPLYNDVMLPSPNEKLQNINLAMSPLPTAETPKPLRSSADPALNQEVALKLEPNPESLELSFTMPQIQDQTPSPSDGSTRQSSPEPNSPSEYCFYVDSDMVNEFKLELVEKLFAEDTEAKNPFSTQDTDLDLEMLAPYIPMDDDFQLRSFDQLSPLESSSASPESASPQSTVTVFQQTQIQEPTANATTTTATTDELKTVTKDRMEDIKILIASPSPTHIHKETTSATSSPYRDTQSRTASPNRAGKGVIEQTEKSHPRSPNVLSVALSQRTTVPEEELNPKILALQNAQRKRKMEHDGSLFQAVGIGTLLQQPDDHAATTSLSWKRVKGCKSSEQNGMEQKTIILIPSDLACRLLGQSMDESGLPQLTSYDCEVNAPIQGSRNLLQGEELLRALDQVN
UniProt Q9UNE7: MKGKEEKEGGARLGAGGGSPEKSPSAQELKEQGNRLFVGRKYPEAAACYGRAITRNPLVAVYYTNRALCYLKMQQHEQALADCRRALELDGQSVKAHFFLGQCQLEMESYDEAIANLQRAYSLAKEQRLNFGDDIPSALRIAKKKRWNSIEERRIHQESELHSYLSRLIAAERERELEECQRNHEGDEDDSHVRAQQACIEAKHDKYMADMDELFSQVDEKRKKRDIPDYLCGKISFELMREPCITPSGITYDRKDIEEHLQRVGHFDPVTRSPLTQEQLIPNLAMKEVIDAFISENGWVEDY

Read-outs that look alike come from different tables or passages of the source. No constants are given. Whether binding was seen depends on the method and setting. Binding seen in cells or lysates may run through a third protein. Some results given as binding are weak or reduced against the parent protein; the word gives no strength. For part of these data: Where a sequence is shown, tags or fusion partners need not be part of it.

Assay [1] deals with T1, myc-DAB2IP C-terminal mutant (564-1189) (UniProt Q5VWQ8).
T1 sequence: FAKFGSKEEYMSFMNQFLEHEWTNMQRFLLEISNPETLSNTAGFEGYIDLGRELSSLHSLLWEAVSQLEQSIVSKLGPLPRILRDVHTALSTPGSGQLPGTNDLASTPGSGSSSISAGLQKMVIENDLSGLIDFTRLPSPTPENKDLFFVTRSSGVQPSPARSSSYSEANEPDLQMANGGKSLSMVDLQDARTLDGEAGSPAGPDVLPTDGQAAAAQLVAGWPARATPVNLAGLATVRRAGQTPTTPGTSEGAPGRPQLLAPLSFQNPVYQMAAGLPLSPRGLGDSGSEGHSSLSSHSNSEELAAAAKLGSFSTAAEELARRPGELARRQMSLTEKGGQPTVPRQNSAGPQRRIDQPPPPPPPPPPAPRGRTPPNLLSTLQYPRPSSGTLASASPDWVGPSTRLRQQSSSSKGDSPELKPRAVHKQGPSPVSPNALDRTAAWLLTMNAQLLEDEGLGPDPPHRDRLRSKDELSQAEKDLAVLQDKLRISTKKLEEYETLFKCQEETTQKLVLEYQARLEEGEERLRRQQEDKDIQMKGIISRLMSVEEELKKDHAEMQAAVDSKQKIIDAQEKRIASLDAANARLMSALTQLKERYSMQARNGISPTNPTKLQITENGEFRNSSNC
The experiment in a line: co-IP; HEK293T co-transfected with HA-STUB1 and myc-DAB2IP mutants; Myc antibody immunoprecipitation, STUB1 detected by HA antibody.

The target of assay [2] is T2, myc-DAB2IP N-terminal mutant (1-563) (UniProt Q5VWQ8).
T2 sequence: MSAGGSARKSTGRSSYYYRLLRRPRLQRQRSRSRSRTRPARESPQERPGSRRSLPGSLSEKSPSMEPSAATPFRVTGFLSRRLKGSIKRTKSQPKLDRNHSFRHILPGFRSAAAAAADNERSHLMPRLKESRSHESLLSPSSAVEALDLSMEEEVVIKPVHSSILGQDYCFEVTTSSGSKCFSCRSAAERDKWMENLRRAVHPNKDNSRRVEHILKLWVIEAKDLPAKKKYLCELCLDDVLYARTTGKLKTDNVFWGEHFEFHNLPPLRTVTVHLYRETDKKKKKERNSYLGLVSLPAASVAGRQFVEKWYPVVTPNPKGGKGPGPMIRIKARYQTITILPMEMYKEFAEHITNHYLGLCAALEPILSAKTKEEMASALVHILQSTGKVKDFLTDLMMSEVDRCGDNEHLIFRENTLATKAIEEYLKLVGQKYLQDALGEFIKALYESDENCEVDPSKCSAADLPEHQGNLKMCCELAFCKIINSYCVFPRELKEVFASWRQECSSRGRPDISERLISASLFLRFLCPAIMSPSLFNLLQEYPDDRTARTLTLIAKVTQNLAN
The description is as above.

Assay [3] addresses HIF-1α (endogenous, MCF7) (human (endogenous in MCF7)) (UniProt Q16665). The experiment in a line: co-IP; endogenous proteins in MCF7 cells under hypoxic condition, detected by western blot; also with DAB2IP knocked down by siRNA at the indicated concentrations. For orientation: Immunoblotting shows a protein as a band on a membrane.
In assay [4] the target is T3, DAB2IP (endogenous, MCF7) (human (endogenous in MCF7)) (UniProt Q5VWQ8).
T3 sequence: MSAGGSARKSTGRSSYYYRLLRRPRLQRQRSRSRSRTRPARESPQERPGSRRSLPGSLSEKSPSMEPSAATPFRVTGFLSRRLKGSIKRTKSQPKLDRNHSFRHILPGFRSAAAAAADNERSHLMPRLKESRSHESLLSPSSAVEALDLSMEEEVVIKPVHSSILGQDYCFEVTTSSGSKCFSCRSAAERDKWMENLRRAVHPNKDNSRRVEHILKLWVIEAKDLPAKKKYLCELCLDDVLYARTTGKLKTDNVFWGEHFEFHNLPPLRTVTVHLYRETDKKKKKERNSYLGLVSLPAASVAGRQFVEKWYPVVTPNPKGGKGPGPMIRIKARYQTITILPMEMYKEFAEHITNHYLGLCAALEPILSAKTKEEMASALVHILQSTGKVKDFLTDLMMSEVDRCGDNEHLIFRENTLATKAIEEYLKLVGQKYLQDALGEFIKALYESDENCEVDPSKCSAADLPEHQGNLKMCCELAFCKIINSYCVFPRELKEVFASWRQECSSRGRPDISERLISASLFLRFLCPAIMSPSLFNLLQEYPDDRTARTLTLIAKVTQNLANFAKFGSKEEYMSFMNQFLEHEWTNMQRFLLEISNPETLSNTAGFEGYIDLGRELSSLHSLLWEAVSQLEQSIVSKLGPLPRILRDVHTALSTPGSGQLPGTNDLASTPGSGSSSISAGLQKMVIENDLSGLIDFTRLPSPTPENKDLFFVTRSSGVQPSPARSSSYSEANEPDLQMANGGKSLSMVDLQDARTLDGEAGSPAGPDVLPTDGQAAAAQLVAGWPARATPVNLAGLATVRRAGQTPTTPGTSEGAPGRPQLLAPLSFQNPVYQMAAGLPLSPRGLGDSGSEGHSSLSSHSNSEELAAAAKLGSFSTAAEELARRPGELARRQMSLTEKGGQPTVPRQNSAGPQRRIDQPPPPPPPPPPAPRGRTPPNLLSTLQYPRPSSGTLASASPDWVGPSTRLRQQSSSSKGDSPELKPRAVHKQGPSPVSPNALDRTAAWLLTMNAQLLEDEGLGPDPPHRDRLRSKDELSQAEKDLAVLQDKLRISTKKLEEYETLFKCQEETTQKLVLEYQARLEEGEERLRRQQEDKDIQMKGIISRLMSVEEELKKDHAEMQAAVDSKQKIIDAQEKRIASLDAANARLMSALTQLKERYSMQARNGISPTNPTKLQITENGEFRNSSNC
The description is as above.

Assay [5] addresses HIF-1α (HEK293T, hypoxia) (human (endogenous in HEK293T)) (UniProt Q16665). The experiment in a line: proximity ligation; PLA in fixed HEK293T cells with control (NC) or DAB2IP overexpression under hypoxic condition; Duolink kit.
Assay [6] has the same target. The experiment in a line: co-IP; HEK293T cells transfected with DAB2IP plasmid (for Fig. 4F pcDNA3.1-DAB2IP at the indicated concentrations) under hypoxic condition; western blot.
Assay [7] addresses STUB1 (endogenous, MCF7) (human (endogenous in MCF7)) (UniProt Q9UNE7). Briefly: co-IP; endogenous proteins in MCF7 cells under hypoxic condition, detected by western blot; also with DAB2IP knocked down by siRNA at the indicated concentrations.
The target of assay [8] is HIF-1α (endogenous, MCF7) (human (endogenous in MCF7)) (UniProt Q16665). Described as above. This is another data set of the same source.
Assay [9] addresses HIF-1α (HEK293T, hypoxia) (human (endogenous in HEK293T)) (UniProt Q16665). Briefly: co-IP; HEK293T cells transfected with DAB2IP plasmid (for Fig. 4F pcDNA3.1-DAB2IP at the indicated concentrations) under hypoxic condition; western blot. The source holds these as a separate data set.

Consider “HA-STUB1 (from UniProt Q9UNE7 1-303) (enzyme)”, for which the binding result is “binds” in [1] and “no binding” in [2].

Take “STUB1 (endogenous, MCF7) (from UniProt Q9UNE7 1-303) (enzyme)”: the binding entry in assay [3] and in [4] was “binds” throughout.

With “STUB1 (endogenous, HEK293T) (from UniProt Q9UNE7 1-303) (enzyme)”, the binding result in [5] and in assay [6] was “binds” in each case.

B1: DAB2IP (endogenous, MCF7) (protein, UniProt Q5VWQ8 1-1189)
chain: T3 sequence
With B1, the binding entry in assay [7] and in assay [8] was “binds” each time.

B2: Myc-DAB2IP (full length: 1-1189) (protein, UniProt Q5VWQ8 1-1189)
chain: T3 sequence
Turning to B2, the binding result in assay [9] is “binds”.
